Results deposited as PubChem BioAssay AID1159578 (Peter MacCallum Cancer Centre, 2015)

- Assay: 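Genome-wide hunt for genes controlling movement of lymphatic endothelial cells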 (primary screen)
- Cell system: human lymphatic endothelial cells
- Reagents: siRNA pool against human genes, 40 nM
- Duration: 48 h after transfection
- Read-out: 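High-content imaging of dye-stained cells in a scratch assay measures filled wound area and nuclei per well; duplicate means given as ratio to mock and robust z-score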
- Scale: migration robust z-score: higher = faster migration into the scratch; migration relative to mock: higher = more scratch area covered than mock; nuclei per well: higher = more cells in the well
- Rule for the call: 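Migration changed when robust z exceeds 2 or falls below -2 and mean nuclei number is at least 3300; otherwise not called changed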
- Calls: active = migration changed; inactive = no migration change, or too few cells
The whole screen tested about 18,000 reagents; shown is a part drawn at random. About 1,030 of all reagents (5.7%) count as active. 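Inactive calls also include pools with fewer than 3300 nuclei, whose migration was not assessed.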 The raw values are shown without normalisation. Entries without a mark were called inactive.

no.	Gene	PubChem SID	migration robust z-score	migration class with cell-count check	migration relative to mock	nuclei per well, duplicate mean
1	KIAA2013	SID255361797	0.99	migration z between -2 and 2; enough cells	1.14	5804
2	PROSER1	SID255360704	-0.77	migration z between -2 and 2; enough cells	0.68	4946
3	CELF4	SID255359133	-0.78	migration z between -2 and 2; enough cells	0.66	4970
4	MAB21L2	SID255355203	0.02	migration z between -2 and 2; enough cells	0.89	5251
5	PRAMEF12	SID255365673	1.15	migration z between -2 and 2; enough cells	1.19	5529
6	TEKT5	SID255363275	-0.04	migration z between -2 and 2; enough cells	0.87	5120
7	EIF5A2	SID255359099	-0.76	migration z between -2 and 2; enough cells	0.66	5262
8	OR13H1	SID255365222	-0.88	migration z between -2 and 2; enough cells	0.66	6066
9	SPACA1	SID255360956	-0.6	migration z between -2 and 2; enough cells	0.74	5719
10	INSIG2	SID255357511	0.37	migration z between -2 and 2; enough cells	0.98	4820
11	INSL3	SID255350512	1.01	migration z between -2 and 2; enough cells	1	5904
12	NUDT22	SID255361317	-1.23	migration z between -2 and 2; enough cells	0.56	7652
13	TRMT61B	SID255358342	-2.82 (active)	migration z below -2; enough cells	0.16	5366
14	TOMM34	SID255355475	-2.18 (active)	migration z below -2; enough cells	0.32	3603
15	AFAP1	SID255359698	0.64	migration z between -2 and 2; enough cells	1.05	4290
16	API5	SID255353631	0.05	migration z between -2 and 2; enough cells	0.9	5804
17	PAPPA2	SID255359738	0.42	migration z between -2 and 2; enough cells	0.88	5730
18	RFC4	SID255352098	-0.38	migration z between -2 and 2; enough cells	0.73	5318
19	ZKSCAN7	SID255358934	0.68	migration z between -2 and 2; enough cells	1.06	4896
20	ITGB5	SID255350554	-0.18	migration z between -2 and 2; enough cells	0.77	5890
21	IFT54	SID255356687	-0.26	migration z between -2 and 2; enough cells	0.82	5670
22	REM1	SID255357072	-0.08	migration z between -2 and 2; enough cells	0.79	5413
23	BRD4	SID255356267	-0.18	migration z between -2 and 2; enough cells	0.77	4698
24	SUV39H2	SID255360417	-0.68	migration z between -2 and 2; enough cells	0.68	4495
25	NCK1	SID255351154	-1.2	migration z between -2 and 2; enough cells	0.57	3480
26	MYH4	SID255351100	0.94	migration z between -2 and 2; enough cells	0.99	5444
27	DENND11	SID255359331	0.1	migration z between -2 and 2; enough cells	0.91	6623
28	FNDC9	SID255365855	-1.83	migration z between -2 and 2; enough cells	0.41	3920
29	ACYP1	SID255348170	-0.6	migration z between -2 and 2; enough cells	0.73	6750

9 successive records from above:
no.	Gene	PubChem SID	migration robust z-score	migration class with cell-count check	migration relative to mock	nuclei per well, duplicate mean
6	TEKT5	SID255363275	-0.04	migration z between -2 and 2; enough cells	0.87	5120
7	EIF5A2	SID255359099	-0.76	migration z between -2 and 2; enough cells	0.66	5262
8	OR13H1	SID255365222	-0.88	migration z between -2 and 2; enough cells	0.66	6066
9	SPACA1	SID255360956	-0.6	migration z between -2 and 2; enough cells	0.74	5719
10	INSIG2	SID255357511	0.37	migration z between -2 and 2; enough cells	0.98	4820
11	INSL3	SID255350512	1.01	migration z between -2 and 2; enough cells	1	5904
12	NUDT22	SID255361317	-1.23	migration z between -2 and 2; enough cells	0.56	7652
13	TRMT61B	SID255358342	-2.82 (active)	migration z below -2; enough cells	0.16	5366
14	TOMM34	SID255355475	-2.18 (active)	migration z below -2; enough cells	0.32	3603

The results go on.
no.	Gene	PubChem SID	migration robust z-score	migration class with cell-count check	migration relative to mock	nuclei per well, duplicate mean
30	NTN5	SID255362688	1.27	migration z between -2 and 2; enough cells	1.21	5479
31	TERF1	SID255352815	-0.57	migration z between -2 and 2; enough cells	0.74	6574
32	MTURN	SID255364332	-0.73	migration z between -2 and 2; enough cells	0.7	5808
33	NSFL1C	SID255358970	1.39	migration z between -2 and 2; enough cells	1.25	5850
34	CNN3	SID255348994	0.7	migration z between -2 and 2; enough cells	1.07	5252
35	MAF1	SID255361257	-0.81	migration z between -2 and 2; enough cells	0.68	4924
36	MXRA8	SID255358100	-0.16	migration z between -2 and 2; enough cells	0.84	5448
37	TMCC1	SID255355933	0.92	migration z between -2 and 2; enough cells	1.13	5074
38	CTTNBP2NL	SID255358956	-1.69	under 3300 nuclei; migration not judged	0.44	1748
39	TM9SF2	SID255354231	-0.8	migration z between -2 and 2; enough cells	0.68	6762
40	FAM184A	SID255360345	-0.64	migration z between -2 and 2; enough cells	0.72	5652
41	ZNF556	SID255360637	0.67	migration z between -2 and 2; enough cells	1.06	6320
42	CCDC50	SID255363526	0.08	migration z between -2 and 2; enough cells	0.9	6516
43	KIAA0753	SID255354607	0.22	migration z between -2 and 2; enough cells	0.94	5496
44	LCE4A	SID255364010	-0.99	migration z between -2 and 2; enough cells	0.62	5280
45	SH3TC2	SID255360341	-0.24	migration z between -2 and 2; enough cells	0.82	4654
46	PLEKHA7	SID255363204	1.01	migration z between -2 and 2; enough cells	1.15	5172
47	POLA1	SID255351673	-1.14	under 3300 nuclei; migration not judged	0.58	2695
48	ZNF749	SID255365501	-1.31	migration z between -2 and 2; enough cells	0.54	6599
49	DDN	SID255355996	-0.09	migration z between -2 and 2; enough cells	0.86	5758
50	FUBP1	SID255353889	-0.44	migration z between -2 and 2; enough cells	0.72	5824
51	MPZL3	SID255363956	-2.75	under 3300 nuclei; migration not judged	0.16	2046
52	LRP10	SID255356619	-0.48	migration z between -2 and 2; enough cells	0.76	7084
53	NDUFAF3	SID255356550	-0.01	migration z between -2 and 2; enough cells	0.88	5405
54	YTHDF2	SID255357720	-1.99	migration z between -2 and 2; enough cells	0.37	3363
55	HDGF	SID255350167	-1.17	migration z between -2 and 2; enough cells	0.58	4391
56	GCDH	SID255349849	-0.86	migration z between -2 and 2; enough cells	0.64	5483
57	CHRNB1	SID255348924	0.34	migration z between -2 and 2; enough cells	0.87	5589
